For 4 molecules, binding results are on record in patent US20190106510A1 (CELLDEX THERAPEUTICS, published 2019).

Chains of the proteins cited; added tags and fusions are not shown. Lines headed by an entry give the natural chain unless they say otherwise; changes in a name come on top. Residues count along the entry.
UniProt O97799, residues 28-527: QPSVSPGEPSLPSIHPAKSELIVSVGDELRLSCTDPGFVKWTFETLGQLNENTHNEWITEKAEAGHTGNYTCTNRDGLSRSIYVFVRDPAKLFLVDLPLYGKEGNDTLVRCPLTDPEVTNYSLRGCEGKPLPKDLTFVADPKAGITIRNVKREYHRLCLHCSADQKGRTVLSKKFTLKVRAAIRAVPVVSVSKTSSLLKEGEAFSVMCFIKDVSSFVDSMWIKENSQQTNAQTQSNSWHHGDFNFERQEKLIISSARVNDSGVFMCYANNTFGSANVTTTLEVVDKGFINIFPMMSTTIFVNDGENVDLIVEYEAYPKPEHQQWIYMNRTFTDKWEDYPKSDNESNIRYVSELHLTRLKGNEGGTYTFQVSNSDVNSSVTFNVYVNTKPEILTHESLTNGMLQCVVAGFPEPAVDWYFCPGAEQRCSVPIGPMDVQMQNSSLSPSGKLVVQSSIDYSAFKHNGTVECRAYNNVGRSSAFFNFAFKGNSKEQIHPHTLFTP
UniProt P10721: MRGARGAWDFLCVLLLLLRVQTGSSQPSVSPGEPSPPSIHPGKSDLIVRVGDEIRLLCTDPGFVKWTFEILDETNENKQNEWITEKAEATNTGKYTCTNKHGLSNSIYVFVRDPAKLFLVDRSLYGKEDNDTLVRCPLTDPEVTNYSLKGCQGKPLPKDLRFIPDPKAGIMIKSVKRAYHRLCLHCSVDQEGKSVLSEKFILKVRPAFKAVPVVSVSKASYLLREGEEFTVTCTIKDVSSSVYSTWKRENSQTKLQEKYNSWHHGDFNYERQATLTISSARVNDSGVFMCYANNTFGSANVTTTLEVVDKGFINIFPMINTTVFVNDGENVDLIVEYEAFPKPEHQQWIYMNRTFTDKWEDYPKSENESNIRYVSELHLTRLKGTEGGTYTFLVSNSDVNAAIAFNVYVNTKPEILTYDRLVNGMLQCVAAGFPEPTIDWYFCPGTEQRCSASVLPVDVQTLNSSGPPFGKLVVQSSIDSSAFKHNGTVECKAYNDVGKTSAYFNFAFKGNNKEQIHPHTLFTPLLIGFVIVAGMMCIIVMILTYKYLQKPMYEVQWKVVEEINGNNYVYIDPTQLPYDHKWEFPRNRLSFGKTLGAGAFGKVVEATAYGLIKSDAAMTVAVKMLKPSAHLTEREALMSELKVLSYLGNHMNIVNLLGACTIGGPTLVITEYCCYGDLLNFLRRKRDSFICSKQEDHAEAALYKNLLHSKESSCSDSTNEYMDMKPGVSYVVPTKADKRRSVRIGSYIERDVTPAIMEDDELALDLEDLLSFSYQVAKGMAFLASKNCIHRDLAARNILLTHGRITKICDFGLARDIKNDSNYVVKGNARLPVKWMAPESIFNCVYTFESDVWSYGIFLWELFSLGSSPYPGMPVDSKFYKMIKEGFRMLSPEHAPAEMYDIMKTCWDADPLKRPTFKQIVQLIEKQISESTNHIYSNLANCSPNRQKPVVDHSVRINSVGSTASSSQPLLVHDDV

One experiment concerns the target canine KIT (canine) (UniProt O97799). The experiment is described as follows: additional binding assays (format not described).
The target of a further experiment is human KIT (human) (UniProt P10721). Nature of the experiment: additional binding assays (format not described).

Results are given in words; binding and its absence hold for the method and conditions named. Some entries that bind do so weakly or less than the wild type.

B1: Hum8 (antibody, V domains shown)
VH: QVQLVQSGAEVKKPGASVKLSCKASGYTFTDYYINWVRQAPGKGLEWIARIYPGSGNTYYNEKFKGRATLTADKSTSTAYMQLSSLRSEDTAVYFCARGVYYFDYWGQGTTVTVSS
VL: DIVMTQSPSSLSASVGDRVTITCKASQNVRTNVAWYQQKPGKAPKALIYSASYRYSGVPDRFTGSGSGTDFTLTISSLQPEDFADYFCQQYNSYPRTFGGGTKVEIK
For B1, the binding entry with canine KIT (canine) and in the experiment with human KIT (human) was “binds” each time.

B2: Hum17 (antibody, V domains shown)
VH: QVQLVQSGAEVKKPGASVKLSCKASGYTFTDYYINWVKQAPGKGLEWIARIYPGSGNTYYNEKFKGRATLTAEKSTSTAYMQLSSLRSEDTAVYFCARGVYYFDYWGQGTTVTVSS
VL: DIVMTQSPSSLSASVGDRVTITCKASQNVRTNVAWYQQKPGKAPKSLIYSASYRYSGVPDRFSGSGSGTDFTLTISSLQPEDFATYYCQQYNSYPRTFGGGTKVEIK
As to B2, the binding result in the experiment with canine KIT (canine) and in the experiment with human KIT (human) was “binds” each time.

B3: Hum10 (antibody, V domains shown)
VH: QVQLVQSGAEVKKPGASVKVSCKASGYTFTDYYINWVRQAPGKGLEWIARIYPGSGNTYYNEKFKGRVTITADKSTSTAYMELSSLRSEDTAVYFCARGVYYFDYWGQGTTVTVSS
VL: DIVMTQSPSSLSASVGDRVTITCKASQNVRTNVAWYQQKPGKAPKALIYSASYRYSGVPDRFTGSGSGTDFTLTISSLQPEDFADYFCQQYNSYPRTFGGGTKVEIK
As to B3, the binding entry in the experiment with canine KIT (canine) and in the experiment with human KIT (human) was “binds” throughout.

B4: Hum4 (antibody, V domains shown)
VH: QVQLVQSGAEVKKPGASVKVSCKASGYTFTDYYINWVRQAPGKGLEWIARIYPGSGNTYYNEKFKGRATITADKSTSTAYMELSSLRSEDTAVYFCARGVYYFDYWGQGTTVTVSS
VL: DIVMTQSPSFLSASVGDRVTITCKASQNVRTNVAWYQQKPGKAPKALIYSASYRYSGVPDRFTGSGSGTDFTLTISSLQSEDFADYFCQQYNSYPRTFGGGTKVEIK
B4: the binding entry with canine KIT (canine) and with human KIT (human) was “binds” throughout.
